Results are given in words; binding and its absence hold for the method and conditions named. Binding seen in cells or lysates may run through a third protein. Some entries that bind do so weakly or less than the wild type.
Tests used:
[1] = target: TPR (human (endogenous in HCT116)) (UniProt P12270); experiment: co-IP; endogenous proteins immunoprecipitated from nuclear extracts of HCT116 cells with antibodies against TPR or against GANP, blotted for GANP and TPR; GANP IP with or without RNase treatment
[2] = target: GANP (germinal-centre associated nuclear protein) (human (endogenous in HCT116)) (UniProt O60318); experiment: as above

Amino acid sequences for entries named in this document (tags omitted).
UniProt P12270: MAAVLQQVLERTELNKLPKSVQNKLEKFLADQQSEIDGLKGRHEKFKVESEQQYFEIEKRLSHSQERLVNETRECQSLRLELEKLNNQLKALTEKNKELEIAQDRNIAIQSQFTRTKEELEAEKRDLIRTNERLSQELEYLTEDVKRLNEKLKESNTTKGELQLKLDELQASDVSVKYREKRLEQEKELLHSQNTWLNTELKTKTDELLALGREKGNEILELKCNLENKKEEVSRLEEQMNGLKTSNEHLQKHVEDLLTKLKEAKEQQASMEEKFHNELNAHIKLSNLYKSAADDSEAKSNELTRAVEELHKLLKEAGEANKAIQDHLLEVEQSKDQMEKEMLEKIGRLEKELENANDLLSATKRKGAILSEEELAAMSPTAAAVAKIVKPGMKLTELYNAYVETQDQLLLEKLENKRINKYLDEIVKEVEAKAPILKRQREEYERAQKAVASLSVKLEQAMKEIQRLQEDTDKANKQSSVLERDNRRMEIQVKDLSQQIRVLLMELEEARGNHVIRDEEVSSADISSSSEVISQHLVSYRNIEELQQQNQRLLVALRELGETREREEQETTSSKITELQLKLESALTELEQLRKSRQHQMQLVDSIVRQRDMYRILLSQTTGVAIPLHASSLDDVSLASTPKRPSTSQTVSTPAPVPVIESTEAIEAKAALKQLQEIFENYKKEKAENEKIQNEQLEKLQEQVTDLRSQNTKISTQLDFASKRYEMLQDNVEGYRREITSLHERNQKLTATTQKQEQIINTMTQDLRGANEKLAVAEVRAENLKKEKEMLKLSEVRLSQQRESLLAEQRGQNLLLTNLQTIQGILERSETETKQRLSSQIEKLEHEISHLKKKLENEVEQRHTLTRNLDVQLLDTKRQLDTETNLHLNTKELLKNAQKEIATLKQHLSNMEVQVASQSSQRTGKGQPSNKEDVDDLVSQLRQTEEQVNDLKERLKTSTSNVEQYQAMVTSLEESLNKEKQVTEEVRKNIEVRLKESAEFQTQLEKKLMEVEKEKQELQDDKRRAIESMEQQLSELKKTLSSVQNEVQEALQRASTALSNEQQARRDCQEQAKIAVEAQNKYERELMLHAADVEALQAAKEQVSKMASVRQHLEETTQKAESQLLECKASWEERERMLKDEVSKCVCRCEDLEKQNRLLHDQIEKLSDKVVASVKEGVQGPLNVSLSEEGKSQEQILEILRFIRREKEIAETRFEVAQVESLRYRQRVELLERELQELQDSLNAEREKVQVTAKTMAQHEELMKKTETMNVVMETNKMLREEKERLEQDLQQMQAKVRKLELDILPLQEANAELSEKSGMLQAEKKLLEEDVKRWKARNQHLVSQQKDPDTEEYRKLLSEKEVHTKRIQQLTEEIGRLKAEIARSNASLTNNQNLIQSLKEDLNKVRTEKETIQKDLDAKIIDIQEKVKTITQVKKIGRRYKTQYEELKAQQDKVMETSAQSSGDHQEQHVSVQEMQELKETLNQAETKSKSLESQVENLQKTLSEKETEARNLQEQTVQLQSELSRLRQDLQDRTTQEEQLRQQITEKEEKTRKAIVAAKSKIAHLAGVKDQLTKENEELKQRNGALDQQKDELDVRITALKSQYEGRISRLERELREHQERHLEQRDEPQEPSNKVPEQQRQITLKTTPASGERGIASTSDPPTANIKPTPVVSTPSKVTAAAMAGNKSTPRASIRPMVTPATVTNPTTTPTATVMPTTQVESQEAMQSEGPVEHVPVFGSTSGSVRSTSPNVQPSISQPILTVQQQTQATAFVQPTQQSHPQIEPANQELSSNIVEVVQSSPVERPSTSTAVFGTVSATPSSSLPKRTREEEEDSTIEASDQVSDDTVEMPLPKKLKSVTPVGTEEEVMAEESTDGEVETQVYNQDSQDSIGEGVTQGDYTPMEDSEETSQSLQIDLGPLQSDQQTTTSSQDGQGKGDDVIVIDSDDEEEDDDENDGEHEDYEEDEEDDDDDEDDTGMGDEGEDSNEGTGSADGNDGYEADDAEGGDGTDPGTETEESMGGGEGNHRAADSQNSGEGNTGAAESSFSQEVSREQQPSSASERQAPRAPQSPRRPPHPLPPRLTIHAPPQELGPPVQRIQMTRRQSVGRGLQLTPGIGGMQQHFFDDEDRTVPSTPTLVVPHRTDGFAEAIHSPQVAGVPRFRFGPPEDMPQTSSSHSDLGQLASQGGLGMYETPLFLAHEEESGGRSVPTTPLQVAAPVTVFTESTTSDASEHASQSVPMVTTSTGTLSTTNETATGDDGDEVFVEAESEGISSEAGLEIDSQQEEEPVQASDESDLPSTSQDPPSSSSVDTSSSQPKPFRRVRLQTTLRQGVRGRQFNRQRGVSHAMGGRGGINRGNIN
UniProt O60318: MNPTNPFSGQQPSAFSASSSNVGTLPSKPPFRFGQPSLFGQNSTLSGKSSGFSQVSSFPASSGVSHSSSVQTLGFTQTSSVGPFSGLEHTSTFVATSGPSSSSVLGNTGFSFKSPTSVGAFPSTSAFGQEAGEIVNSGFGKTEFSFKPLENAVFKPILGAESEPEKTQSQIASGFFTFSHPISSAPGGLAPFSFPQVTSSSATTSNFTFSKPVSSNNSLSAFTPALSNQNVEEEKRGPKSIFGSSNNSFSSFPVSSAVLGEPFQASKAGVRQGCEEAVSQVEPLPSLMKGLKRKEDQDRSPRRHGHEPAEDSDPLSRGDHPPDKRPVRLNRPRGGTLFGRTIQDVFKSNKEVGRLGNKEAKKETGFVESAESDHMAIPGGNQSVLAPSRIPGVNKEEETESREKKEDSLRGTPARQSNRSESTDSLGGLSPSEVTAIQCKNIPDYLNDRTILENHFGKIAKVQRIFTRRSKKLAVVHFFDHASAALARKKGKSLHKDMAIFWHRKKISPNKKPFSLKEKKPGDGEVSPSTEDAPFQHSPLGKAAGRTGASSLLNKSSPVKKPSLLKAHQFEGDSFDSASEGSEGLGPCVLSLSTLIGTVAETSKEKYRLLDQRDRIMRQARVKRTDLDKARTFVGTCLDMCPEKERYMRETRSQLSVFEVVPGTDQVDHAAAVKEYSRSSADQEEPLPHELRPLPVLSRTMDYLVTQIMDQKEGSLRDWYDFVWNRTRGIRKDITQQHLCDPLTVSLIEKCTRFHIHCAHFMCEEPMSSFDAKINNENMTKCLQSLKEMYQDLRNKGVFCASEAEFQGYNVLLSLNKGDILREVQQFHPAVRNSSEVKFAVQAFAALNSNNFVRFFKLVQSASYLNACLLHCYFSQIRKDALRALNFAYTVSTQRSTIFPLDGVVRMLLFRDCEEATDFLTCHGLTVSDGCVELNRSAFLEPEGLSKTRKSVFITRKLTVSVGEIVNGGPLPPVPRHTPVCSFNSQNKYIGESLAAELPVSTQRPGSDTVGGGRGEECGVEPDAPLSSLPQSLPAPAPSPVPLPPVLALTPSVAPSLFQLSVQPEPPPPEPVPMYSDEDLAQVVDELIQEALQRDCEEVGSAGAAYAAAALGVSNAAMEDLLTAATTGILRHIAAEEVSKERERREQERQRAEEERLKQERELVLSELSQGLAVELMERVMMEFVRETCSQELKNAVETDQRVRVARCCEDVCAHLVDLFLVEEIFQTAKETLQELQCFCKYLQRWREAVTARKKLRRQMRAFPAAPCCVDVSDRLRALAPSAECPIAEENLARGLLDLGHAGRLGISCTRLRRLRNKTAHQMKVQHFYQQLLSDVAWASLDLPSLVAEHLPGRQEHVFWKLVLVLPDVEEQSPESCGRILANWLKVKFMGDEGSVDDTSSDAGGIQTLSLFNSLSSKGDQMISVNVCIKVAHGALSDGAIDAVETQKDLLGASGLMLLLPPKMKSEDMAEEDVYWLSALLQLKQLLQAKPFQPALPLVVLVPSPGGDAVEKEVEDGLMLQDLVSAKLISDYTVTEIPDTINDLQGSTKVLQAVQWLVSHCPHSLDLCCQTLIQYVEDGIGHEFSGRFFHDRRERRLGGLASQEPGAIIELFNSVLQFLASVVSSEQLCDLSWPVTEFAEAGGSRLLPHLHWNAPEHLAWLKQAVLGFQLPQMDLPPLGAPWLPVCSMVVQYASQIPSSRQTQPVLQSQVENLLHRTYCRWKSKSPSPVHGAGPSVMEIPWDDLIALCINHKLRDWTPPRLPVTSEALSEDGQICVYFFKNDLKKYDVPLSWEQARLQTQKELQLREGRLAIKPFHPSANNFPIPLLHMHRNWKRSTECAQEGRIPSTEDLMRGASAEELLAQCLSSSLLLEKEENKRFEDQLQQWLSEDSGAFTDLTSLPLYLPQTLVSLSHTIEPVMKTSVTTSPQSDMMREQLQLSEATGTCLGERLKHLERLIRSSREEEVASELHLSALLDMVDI

Substance	binding [1]	binding [2]
GANP (germinal-centre associated nuclear protein) (from UniProt O60318 1-1980)	binds	–
TPR (from UniProt P12270 1-2363)	–	binds
